Experimental data as given in publication PMC3813497.

Amino acid sequences for entries named in this document (tags omitted). A change or cut given only in a name is not applied to a line headed by its entry.
UniProt Q01159: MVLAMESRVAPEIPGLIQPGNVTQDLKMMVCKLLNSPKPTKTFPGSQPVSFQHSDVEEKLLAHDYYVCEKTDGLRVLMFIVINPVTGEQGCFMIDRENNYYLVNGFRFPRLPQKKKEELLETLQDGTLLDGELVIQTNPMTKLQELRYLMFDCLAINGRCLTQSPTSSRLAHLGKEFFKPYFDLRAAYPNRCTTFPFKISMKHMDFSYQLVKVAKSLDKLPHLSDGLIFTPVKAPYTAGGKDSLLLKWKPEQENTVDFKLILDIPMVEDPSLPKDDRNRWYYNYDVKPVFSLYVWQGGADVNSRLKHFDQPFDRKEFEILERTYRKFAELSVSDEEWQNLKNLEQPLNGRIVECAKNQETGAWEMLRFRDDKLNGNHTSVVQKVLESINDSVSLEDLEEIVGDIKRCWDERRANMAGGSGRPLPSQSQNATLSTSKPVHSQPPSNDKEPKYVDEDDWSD

Biological target: GST-Ceg1p OB domain (S. cerevisiae) (UniProt Q01159)
Assay: pull-down; GST or GST-Ceg1p OB domain as bait; Cet1p forms translated in rabbit reticulocyte lysate with [35S]-methionine, lysate nuclease-treated; TNE buffer (20 mM Tris-HCl pH 7.5, 150 mM NaCl, 2 mM EDTA, 1% NP-40); SDS-PAGE, imaging plate; only the target purified

binding: no binding
B1: Cet1(4A)p (protein, UniProt O13297 1-549)
chain: MSYTDNPPQTKRALSLDDLVNHDENEKVKLQKLSEAANGSRPFAENLESDINQTETGQAAPIDNYKESTGHGSHSQKPKSRKSSNDDEETDTDDEMGASGEINFDSEMDFDYDKQHRNLLSNGSPPMNDGSDANAKLEKPSDDSIHQNSKSDEEQRIPKQGNEGNIASNYITQVPLQKQKQTEKKIAGNAVGSVVKKEEEANAAVDNIFEEKATLQSKKNNIKRDLEVLNEISASSKPSKYRNVPIAAAAAKPTIKALQSINVKDLKIDPSFLNIIPDDDLTKSVQDWVYATIYSIAPELRSFIELEMKFGVIIDAKGPDRVNPPVSSQCVFTELDAHLTPNIDASLFKELSKYIRGISEVTENTGKFSIIESQTRDSVYRVGLSTQRPRFLRMSTDIKTGRVGQFIEKRHVAQLLLYSPKDSYDVKISLNLELPVPDNDPPEKYKSQSPISERTKDRVSYIHNDSCTRIDITKVENHNQNSKSRQSETTHEVELEINTPALLNAFDNITNDSKEYASLIRTFLNNGTIIRRKLSSLSYEIFEGSKKVM
modifications: [35S]-methionine label

binding: binds
B2: Cet1(228–549)p (domain or fragment, UniProt O13297 228-549)
chain: VLNEISASSKPSKYRNVPIWAQKWKPTIKALQSINVKDLKIDPSFLNIIPDDDLTKSVQDWVYATIYSIAPELRSFIELEMKFGVIIDAKGPDRVNPPVSSQCVFTELDAHLTPNIDASLFKELSKYIRGISEVTENTGKFSIIESQTRDSVYRVGLSTQRPRFLRMSTDIKTGRVGQFIEKRHVAQLLLYSPKDSYDVKISLNLELPVPDNDPPEKYKSQSPISERTKDRVSYIHNDSCTRIDITKVENHNQNSKSRQSETTHEVELEINTPALLNAFDNITNDSKEYASLIRTFLNNGTIIRRKLSSLSYEIFEGSKKVM
modifications: [35S]-methionine label

These are yes or no findings as the source states them, for the method shown. In cells and extracts the contact can be indirect. A result given as binding can be weak or reduced; the word gives no strength. Each block holds one binder with its values, some of them ahead of it.
